# PubChem BioAssay AID743121 – NCATS – 2013
# Assay: 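Knock-downs that sensitise breast cancer cells to camptothecin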 (primary screen)
# System: MDA-MB-231 cells, a human breast cancer line
# Reagent: single siRNA against human genes, 20 nM siRNA (0.8 pmol per well)
# Time to read-out: 120 h (drug added 48 h after transfection, read 72 h later)
# Treatment: camptothecin 20 nM (about EC30) for 72 h; vehicle 0.1% DMSO in parallel plates
# Measurement: 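CellTiter-Glo ATP signal, scaled to control siRNA as percent viability; sensitisation given as log2 of untreated divided by camptothecin-treated viability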
# Direction: log2 vehicle/camptothecin viability: higher = stronger sensitisation to camptothecin; viability with camptothecin: higher = more viable cells
# Rule for the call: 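Active genes have an RSA gene-level p-value below 0.001, computed from the ratios of their separate siRNAs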
# The whole screen tested about 26,000 reagents; this is a part drawn at random. In the full data, 167 (0.63%) are marked active. 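Calls are per gene from RSA p-values that are not deposited; an individual active-marked siRNA can sensitise only weakly.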 The numbers tell different reagents against one gene apart. Not all columns of the deposit are shown.
gene,siRNA no.,log2 vehicle/camptothecin viability,viability with camptothecin (% of control),Outcome
SLC25A32,1,-0.00279,106,inactive
SLC25A32,2,0.603,54.4,inactive
SLC25A32,3,-0.0835,81.4,inactive
SLC25A32,4,-0.0432,60.4,inactive
GPR158 (G protein-coupled receptor 158),1,-0.262,104,inactive
GPR158 (G protein-coupled receptor 158),2,-0.344,98.9,inactive
GPR158 (G protein-coupled receptor 158),3,-0.158,99.8,inactive
GPR158 (G protein-coupled receptor 158),4,-0.324,96.3,inactive
MLX (MAX dimerization protein MLX),1,0.148,70.2,inactive
MLX (MAX dimerization protein MLX),2,-0.303,104,inactive
MLX (MAX dimerization protein MLX),3,-0.129,94.1,inactive
MLX (MAX dimerization protein MLX),4,-0.432,71.8,inactive
LMTK2 (lemur tail kinase 2),1,0.259,41.9,inactive
LMTK2 (lemur tail kinase 2),2,-0.335,111,inactive
LMTK2 (lemur tail kinase 2),3,-0.113,87.3,inactive
LMTK2 (lemur tail kinase 2),4,0.12,76.9,inactive
PDP2 (pyruvate dehydrogenase phosphatase catalytic subunit 2),1,0.312,73.5,inactive
PDP2 (pyruvate dehydrogenase phosphatase catalytic subunit 2),2,0.0521,93.8,inactive
PDP2 (pyruvate dehydrogenase phosphatase catalytic subunit 2),3,-0.47,95,inactive
PDP2 (pyruvate dehydrogenase phosphatase catalytic subunit 2),4,-0.0551,108,inactive
LDLRAD2 (low density lipoprotein receptor class A domain containing 2),1,-0.255,83.7,inactive
LDLRAD2 (low density lipoprotein receptor class A domain containing 2),2,-0.609,87.2,inactive
LDLRAD2 (low density lipoprotein receptor class A domain containing 2),3,-0.826,114,inactive
LDLRAD2 (low density lipoprotein receptor class A domain containing 2),4,0.0332,24.1,inactive
HOXD12 (homeobox D12),1,-0.212,112,inactive
HOXD12 (homeobox D12),2,0.163,64.6,inactive
HOXD12 (homeobox D12),3,-0.4,98.6,inactive
HOXD12 (homeobox D12),4,-0.309,67,inactive
MC2R (melanocortin 2 receptor),1,-0.27,113,inactive
MC2R (melanocortin 2 receptor),2,-0.395,41.2,inactive
MC2R (melanocortin 2 receptor),3,0.62,37.8,inactive
MC2R (melanocortin 2 receptor),4,-0.0835,45.5,inactive
DPYD (dihydropyrimidine dehydrogenase),1,0.314,58.6,inactive
DPYD (dihydropyrimidine dehydrogenase),2,-0.56,51.9,inactive
DPYD (dihydropyrimidine dehydrogenase),3,-0.485,73.4,inactive
C3 (complement C3),1,-0.392,98.8,inactive
C3 (complement C3),2,-0.499,66.3,inactive
C3 (complement C3),3,-0.311,92.2,inactive
KIF2B (kinesin family member 2B),1,-0.225,60.1,inactive
KIF2B (kinesin family member 2B),2,0.833,19.7,inactive
KIF2B (kinesin family member 2B),3,-0.481,71.4,inactive
KIF2B (kinesin family member 2B),4,-0.117,88.8,inactive
RELT (RELT TNF receptor),1,-0.13,88.9,inactive
RELT (RELT TNF receptor),2,-0.402,84.1,inactive
RELT (RELT TNF receptor),3,-0.196,81.9,inactive
RELT (RELT TNF receptor),4,0.508,41.6,inactive
FZD2 (frizzled class receptor 2),1,0.046,23.1,inactive
FZD2 (frizzled class receptor 2),2,0.596,39.4,inactive
FZD2 (frizzled class receptor 2),3,-0.535,93.8,inactive
FZD2 (frizzled class receptor 2),4,-0.085,42.1,inactive
KCNC3 (potassium voltage-gated channel subfamily C member 3),1,-0.191,43.8,inactive
KCNC3 (potassium voltage-gated channel subfamily C member 3),2,-0.74,36,inactive
KCNC3 (potassium voltage-gated channel subfamily C member 3),3,-0.355,85.1,inactive
KCNC3 (potassium voltage-gated channel subfamily C member 3),4,-0.289,110,inactive
GPR61 (G protein-coupled receptor 61),1,-0.178,83.3,inactive
GPR61 (G protein-coupled receptor 61),2,0.212,5.91,inactive
GPR61 (G protein-coupled receptor 61),3,-0.00223,77.4,inactive
GPR61 (G protein-coupled receptor 61),4,0.418,41.2,inactive
FUT2 (fucosyltransferase 2 (H blood group)),1,-0.17,48.9,inactive
FUT2 (fucosyltransferase 2 (H blood group)),2,-0.275,70.6,inactive
FUT2 (fucosyltransferase 2 (H blood group)),3,-0.281,94.3,inactive
FUT2 (fucosyltransferase 2 (H blood group)),4,-0.58,57.7,inactive
GMEB1 (glucocorticoid modulatory element binding protein 1),1,-0.362,105,inactive
GMEB1 (glucocorticoid modulatory element binding protein 1),2,-0.0501,74.9,inactive
GMEB1 (glucocorticoid modulatory element binding protein 1),3,-0.36,63.9,inactive
GMEB1 (glucocorticoid modulatory element binding protein 1),4,-0.176,43.9,inactive
EFNB3 (ephrin B3),1,-0.41,40.9,inactive
EFNB3 (ephrin B3),2,-0.27,53.2,inactive
EFNB3 (ephrin B3),3,-0.0726,91.2,inactive
EFNB3 (ephrin B3),4,0.674,31.6,inactive
MAP3K1 (mitogen-activated protein kinase kinase kinase 1),1,-0.328,98.6,inactive
MAP3K1 (mitogen-activated protein kinase kinase kinase 1),2,0.236,62.8,inactive
MAP3K1 (mitogen-activated protein kinase kinase kinase 1),3,-0.14,46.1,inactive
MAP3K1 (mitogen-activated protein kinase kinase kinase 1),4,-0.418,27.7,inactive
"HRAS (HRas proto-oncogene, GTPase)",1,-0.188,59.6,inactive
"HRAS (HRas proto-oncogene, GTPase)",2,0.0431,88.8,inactive
"HRAS (HRas proto-oncogene, GTPase)",3,0.0738,57.8,inactive
"HRAS (HRas proto-oncogene, GTPase)",4,-0.318,34.2,inactive
MAP3K10 (mitogen-activated protein kinase kinase kinase 10),1,0.556,7.49,inactive
MAP3K10 (mitogen-activated protein kinase kinase kinase 10),2,-0.2,52.7,inactive
MAP3K10 (mitogen-activated protein kinase kinase kinase 10),3,-0.121,99.1,inactive
MAP3K10 (mitogen-activated protein kinase kinase kinase 10),4,-0.456,46.1,inactive
OR6A2 (olfactory receptor family 6 subfamily A member 2),1,-0.382,67.8,inactive
OR6A2 (olfactory receptor family 6 subfamily A member 2),2,0.695,12,inactive
OR6A2 (olfactory receptor family 6 subfamily A member 2),3,-0.597,41.6,inactive
OR6A2 (olfactory receptor family 6 subfamily A member 2),4,-0.664,72.1,inactive
"RAB23 (RAB23, member RAS oncogene family)",1,0.0724,68.5,inactive
"RAB23 (RAB23, member RAS oncogene family)",2,-0.273,124,inactive
"RAB23 (RAB23, member RAS oncogene family)",3,-0.134,98.6,inactive

Already shown: 7 of the entries above.
gene,siRNA no.,log2 vehicle/camptothecin viability,viability with camptothecin (% of control),Outcome
DPYD (dihydropyrimidine dehydrogenase),1,0.314,58.6,inactive
DPYD (dihydropyrimidine dehydrogenase),2,-0.56,51.9,inactive
DPYD (dihydropyrimidine dehydrogenase),3,-0.485,73.4,inactive
C3 (complement C3),1,-0.392,98.8,inactive
C3 (complement C3),2,-0.499,66.3,inactive
C3 (complement C3),3,-0.311,92.2,inactive
KIF2B (kinesin family member 2B),1,-0.225,60.1,inactive
